Experimental data published in the supplement of paper PMC12823440, “Inhibitors supercharge kinase turnover through native proteolytic circuits” (Nature, 2025).
The list shows a part of the results. Hit calls seldom repeat between salt and free forms of one compound.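 In K562 cells expressing nanoluciferase-fused kinases, luminescence was recorded at 4 h intervals between 2 and 18 h, normalized as percent of control with DMSO at 100% and a positive control at 0%. A significant (2 sigma) signal drop marks a time point as decreased. The authors' rule for a hit is not shown and takes in more than the number of time points.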

Sequences of proteins named here, by UniProt entry; tags and fusion partners are left off. A change or cut given only in a name is not applied to a line headed by its entry.
UniProt O75460: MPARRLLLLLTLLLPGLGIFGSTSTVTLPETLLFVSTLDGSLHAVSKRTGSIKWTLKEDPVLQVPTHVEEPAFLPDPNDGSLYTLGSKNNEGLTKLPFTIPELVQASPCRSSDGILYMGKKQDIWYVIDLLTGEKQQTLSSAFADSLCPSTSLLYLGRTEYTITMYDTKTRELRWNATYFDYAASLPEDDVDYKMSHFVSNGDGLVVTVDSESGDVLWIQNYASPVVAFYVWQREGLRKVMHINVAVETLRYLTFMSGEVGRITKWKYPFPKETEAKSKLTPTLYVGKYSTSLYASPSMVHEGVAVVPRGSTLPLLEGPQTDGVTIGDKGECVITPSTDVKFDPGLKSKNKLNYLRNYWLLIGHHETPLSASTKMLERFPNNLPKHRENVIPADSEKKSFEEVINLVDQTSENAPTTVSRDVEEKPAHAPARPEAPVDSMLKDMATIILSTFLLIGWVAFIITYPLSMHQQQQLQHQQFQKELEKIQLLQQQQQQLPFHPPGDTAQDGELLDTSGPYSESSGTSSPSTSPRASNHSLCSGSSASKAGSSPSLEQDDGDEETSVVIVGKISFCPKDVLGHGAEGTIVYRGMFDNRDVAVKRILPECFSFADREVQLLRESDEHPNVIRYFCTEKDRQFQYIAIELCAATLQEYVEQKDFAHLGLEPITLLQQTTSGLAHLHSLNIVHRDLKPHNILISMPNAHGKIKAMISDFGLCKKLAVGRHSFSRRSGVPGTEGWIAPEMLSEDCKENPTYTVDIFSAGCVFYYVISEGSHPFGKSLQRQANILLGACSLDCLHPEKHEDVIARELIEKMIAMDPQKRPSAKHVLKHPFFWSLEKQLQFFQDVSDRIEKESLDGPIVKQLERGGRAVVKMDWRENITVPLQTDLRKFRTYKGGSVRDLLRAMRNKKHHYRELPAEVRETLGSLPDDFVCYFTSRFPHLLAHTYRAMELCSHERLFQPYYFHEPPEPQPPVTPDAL
UniProt P11362, whole entry, looked up: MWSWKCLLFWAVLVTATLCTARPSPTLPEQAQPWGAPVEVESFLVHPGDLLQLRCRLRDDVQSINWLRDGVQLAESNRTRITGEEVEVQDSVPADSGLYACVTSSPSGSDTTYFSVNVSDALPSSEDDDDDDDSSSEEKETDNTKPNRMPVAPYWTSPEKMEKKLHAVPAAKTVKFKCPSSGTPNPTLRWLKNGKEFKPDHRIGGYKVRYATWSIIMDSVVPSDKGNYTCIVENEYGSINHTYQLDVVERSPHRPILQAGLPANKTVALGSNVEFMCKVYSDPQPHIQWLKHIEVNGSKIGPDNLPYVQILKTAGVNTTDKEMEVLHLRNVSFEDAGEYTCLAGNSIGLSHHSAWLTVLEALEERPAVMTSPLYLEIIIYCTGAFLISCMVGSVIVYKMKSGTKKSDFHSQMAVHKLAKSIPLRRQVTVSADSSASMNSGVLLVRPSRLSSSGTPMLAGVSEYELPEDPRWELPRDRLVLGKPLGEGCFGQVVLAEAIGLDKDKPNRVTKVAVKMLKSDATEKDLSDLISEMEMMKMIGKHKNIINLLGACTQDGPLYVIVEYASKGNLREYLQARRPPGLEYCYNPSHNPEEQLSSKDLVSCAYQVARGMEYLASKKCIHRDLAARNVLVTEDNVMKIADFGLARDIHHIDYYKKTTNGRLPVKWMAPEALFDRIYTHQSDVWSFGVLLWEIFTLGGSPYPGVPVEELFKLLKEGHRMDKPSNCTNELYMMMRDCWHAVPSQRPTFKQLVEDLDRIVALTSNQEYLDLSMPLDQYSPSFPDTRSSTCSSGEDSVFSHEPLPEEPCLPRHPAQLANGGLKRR
UniProt P06241, whole entry, looked up: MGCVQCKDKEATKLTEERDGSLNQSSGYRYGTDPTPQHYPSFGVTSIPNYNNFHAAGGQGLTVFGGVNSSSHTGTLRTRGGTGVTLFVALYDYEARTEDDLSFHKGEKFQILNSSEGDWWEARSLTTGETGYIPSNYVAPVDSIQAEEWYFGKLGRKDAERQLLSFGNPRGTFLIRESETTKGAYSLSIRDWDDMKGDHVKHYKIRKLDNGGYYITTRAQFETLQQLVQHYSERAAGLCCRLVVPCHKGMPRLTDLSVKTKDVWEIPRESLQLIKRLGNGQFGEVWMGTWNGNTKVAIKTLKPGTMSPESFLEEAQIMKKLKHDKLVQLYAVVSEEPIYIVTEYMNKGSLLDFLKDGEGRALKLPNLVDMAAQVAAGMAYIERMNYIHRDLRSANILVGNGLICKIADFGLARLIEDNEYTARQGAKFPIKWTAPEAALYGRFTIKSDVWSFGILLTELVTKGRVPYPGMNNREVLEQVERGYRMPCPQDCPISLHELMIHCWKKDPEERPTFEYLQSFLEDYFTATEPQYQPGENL
UniProt P49840: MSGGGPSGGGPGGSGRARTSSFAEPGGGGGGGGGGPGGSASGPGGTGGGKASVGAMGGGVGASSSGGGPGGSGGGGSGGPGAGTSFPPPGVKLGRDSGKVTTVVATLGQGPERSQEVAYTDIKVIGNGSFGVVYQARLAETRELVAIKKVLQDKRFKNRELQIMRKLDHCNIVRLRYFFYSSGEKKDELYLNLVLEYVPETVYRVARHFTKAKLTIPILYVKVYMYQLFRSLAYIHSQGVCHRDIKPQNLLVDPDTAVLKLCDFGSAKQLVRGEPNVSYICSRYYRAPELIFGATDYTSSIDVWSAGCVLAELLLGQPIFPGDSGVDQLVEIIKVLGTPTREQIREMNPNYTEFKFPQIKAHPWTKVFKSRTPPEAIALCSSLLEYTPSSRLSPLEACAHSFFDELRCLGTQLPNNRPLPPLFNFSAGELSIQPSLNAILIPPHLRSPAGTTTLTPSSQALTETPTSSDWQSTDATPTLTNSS
UniProt Q9Y616: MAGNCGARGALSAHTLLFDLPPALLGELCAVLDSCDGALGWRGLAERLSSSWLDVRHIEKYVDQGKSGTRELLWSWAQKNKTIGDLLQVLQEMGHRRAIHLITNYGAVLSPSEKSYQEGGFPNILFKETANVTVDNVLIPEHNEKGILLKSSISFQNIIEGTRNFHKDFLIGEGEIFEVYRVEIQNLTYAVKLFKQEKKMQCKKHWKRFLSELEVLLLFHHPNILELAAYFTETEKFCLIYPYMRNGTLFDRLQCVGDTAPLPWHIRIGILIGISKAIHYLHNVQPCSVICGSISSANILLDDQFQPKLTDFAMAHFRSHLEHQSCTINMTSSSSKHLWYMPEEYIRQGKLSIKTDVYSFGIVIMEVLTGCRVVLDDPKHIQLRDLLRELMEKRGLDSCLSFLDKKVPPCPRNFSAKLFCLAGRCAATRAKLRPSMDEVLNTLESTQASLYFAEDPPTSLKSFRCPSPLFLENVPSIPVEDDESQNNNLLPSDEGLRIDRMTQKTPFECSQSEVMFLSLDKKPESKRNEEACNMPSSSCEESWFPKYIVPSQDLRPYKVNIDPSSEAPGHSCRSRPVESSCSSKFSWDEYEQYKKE
UniProt P06239: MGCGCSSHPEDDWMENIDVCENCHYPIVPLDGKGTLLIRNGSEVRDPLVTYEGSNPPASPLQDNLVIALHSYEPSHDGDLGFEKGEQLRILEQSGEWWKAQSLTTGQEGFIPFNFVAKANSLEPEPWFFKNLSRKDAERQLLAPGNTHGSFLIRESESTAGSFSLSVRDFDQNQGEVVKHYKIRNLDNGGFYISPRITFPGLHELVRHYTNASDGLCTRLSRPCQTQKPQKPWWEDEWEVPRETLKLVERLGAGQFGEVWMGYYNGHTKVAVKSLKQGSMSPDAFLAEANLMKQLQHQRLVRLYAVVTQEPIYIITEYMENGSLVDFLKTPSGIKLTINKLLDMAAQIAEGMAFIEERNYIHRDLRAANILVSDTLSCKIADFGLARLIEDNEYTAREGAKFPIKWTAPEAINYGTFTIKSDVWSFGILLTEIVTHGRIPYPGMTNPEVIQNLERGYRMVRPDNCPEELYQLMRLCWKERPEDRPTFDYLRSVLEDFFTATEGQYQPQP
UniProt Q8IWU2: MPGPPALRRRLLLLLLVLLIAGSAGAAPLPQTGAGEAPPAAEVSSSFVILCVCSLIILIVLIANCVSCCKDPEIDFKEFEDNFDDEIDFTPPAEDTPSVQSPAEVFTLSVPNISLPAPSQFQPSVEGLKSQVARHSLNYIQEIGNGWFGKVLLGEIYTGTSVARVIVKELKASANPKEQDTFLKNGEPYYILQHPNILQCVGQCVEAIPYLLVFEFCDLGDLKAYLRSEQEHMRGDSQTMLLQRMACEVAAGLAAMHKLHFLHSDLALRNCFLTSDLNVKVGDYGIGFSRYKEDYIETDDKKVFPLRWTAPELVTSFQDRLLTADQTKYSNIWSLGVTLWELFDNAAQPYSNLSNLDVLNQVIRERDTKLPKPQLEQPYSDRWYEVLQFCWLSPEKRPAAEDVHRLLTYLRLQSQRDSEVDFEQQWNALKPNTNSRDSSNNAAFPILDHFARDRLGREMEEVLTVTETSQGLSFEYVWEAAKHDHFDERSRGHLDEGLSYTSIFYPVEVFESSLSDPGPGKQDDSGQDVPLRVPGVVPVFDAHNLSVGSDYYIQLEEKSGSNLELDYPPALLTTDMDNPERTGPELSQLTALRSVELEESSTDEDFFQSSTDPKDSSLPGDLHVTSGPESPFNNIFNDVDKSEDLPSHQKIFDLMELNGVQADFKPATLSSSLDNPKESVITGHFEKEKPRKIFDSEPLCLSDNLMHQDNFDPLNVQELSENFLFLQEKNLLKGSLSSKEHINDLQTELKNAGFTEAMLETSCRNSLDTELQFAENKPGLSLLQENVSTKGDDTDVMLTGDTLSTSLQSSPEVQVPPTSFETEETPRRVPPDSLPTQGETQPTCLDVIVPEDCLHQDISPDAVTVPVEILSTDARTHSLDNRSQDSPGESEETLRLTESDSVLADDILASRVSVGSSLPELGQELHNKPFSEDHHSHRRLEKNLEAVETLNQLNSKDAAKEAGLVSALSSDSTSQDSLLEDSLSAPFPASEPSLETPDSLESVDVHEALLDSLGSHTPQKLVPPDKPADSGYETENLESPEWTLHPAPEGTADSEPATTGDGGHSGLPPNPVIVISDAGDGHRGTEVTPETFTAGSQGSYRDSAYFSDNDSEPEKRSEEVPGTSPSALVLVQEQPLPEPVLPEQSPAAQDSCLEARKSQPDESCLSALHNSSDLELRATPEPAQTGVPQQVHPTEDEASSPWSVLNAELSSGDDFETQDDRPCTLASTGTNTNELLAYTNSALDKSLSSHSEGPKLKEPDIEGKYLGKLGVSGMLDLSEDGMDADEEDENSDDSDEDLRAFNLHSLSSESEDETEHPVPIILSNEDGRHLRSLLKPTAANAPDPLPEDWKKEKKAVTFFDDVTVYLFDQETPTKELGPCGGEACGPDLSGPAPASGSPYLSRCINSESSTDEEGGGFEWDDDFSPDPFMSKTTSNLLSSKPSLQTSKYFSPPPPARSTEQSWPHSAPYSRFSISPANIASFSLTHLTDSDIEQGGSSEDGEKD
UniProt Q12851: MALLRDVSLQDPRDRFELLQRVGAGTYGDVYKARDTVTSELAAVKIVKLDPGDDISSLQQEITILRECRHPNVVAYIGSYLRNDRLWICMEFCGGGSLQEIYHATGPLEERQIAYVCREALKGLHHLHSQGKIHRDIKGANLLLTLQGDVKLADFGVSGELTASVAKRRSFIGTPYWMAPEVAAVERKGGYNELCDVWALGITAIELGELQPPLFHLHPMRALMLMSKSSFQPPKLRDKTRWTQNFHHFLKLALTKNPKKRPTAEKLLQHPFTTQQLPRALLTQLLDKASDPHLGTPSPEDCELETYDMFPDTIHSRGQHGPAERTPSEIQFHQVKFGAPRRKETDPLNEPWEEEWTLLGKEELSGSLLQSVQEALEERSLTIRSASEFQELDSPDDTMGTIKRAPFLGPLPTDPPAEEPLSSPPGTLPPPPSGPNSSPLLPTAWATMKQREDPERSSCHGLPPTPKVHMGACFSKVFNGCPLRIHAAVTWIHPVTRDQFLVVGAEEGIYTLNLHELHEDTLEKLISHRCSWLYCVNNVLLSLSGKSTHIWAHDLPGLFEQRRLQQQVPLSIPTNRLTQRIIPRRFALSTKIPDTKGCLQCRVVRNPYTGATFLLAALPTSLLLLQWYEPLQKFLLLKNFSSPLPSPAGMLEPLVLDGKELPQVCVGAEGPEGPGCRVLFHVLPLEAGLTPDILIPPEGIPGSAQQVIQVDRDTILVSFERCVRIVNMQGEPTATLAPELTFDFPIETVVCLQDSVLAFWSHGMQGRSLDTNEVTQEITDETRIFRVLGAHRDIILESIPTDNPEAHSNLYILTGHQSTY

What was measured:
Assay in all cases: kinase-Nluc reporter destabilization hit call (1 = scored as downregulated) (binary); higher = compound decreases kinase abundance
Conditions in all cases: K562, 2-18 h
ERN1 = ERN1 (UniProt O75460)
FGFR1 = FGFR1 (UniProt P11362)
FGFR2 = FGFR2 (UniProt P21802)
FGFR3 = FGFR3 (UniProt P22607)
FGR = FGR (UniProt P09769)
FLT3 = FLT3 (UniProt P36888)
FYN = FYN (UniProt P06241)
GSK3A = GSK3A (UniProt P49840)
HER2 = HER2 (UniProt P04626)
INSRR = INSRR (UniProt P14616)
IRAK3 = IRAK3 (UniProt Q9Y616)
JAK1 = JAK1 (UniProt P23458)
LCK = LCK (UniProt P06239)
LIMK1 = LIMK1 (UniProt P53667)
LIMK2 = LIMK2 (UniProt P53671)
LMTK2 = LMTK2 (UniProt Q8IWU2)
LYN = LYN (UniProt P07948)
MAP2K1 = MAP2K1 (UniProt Q02750)
MAP2K2 = MAP2K2 (UniProt P36507)
MAP4K2 = MAP4K2 (UniProt Q12851)

Nc1ncnc2n[nH]c(-c3ccc(Oc4ccccc4)cc3)c12 [Ibrutinib deacryloylpiperidine]
kinase-Nluc reporter destabilization hit call (ERN1; 10 µM): inactive: 0
kinase-Nluc reporter destabilization hit call (FGFR1; 10 µM): inactive: 0
kinase-Nluc reporter destabilization hit call (FGFR2; 10 µM): inactive: 0
kinase-Nluc reporter destabilization hit call (FGFR3; 10 µM): inactive: 0
kinase-Nluc reporter destabilization hit call (FGR; 10 µM): inactive: 0
kinase-Nluc reporter destabilization hit call (FLT3; 10 µM): inactive: 0
kinase-Nluc reporter destabilization hit call (FYN; 10 µM): inactive: 0
kinase-Nluc reporter destabilization hit call (GSK3A; 10 µM): inactive: 0
kinase-Nluc reporter destabilization hit call (HER2; 10 µM): inactive: 0
kinase-Nluc reporter destabilization hit call (INSRR; 10 µM): inactive: 0
kinase-Nluc reporter destabilization hit call (IRAK3; 10 µM): inactive: 0
kinase-Nluc reporter destabilization hit call (JAK1; 10 µM): inactive: 0
kinase-Nluc reporter destabilization hit call (LCK; 10 µM): inactive: 0
kinase-Nluc reporter destabilization hit call (LIMK1; 10 µM): inactive: 0
kinase-Nluc reporter destabilization hit call (LIMK2; 10 µM): inactive: 0
kinase-Nluc reporter destabilization hit call (LMTK2; 10 µM): inactive: 0
kinase-Nluc reporter destabilization hit call (LYN; 10 µM): inactive: 0
kinase-Nluc reporter destabilization hit call (MAP2K1; 10 µM): inactive: 0
kinase-Nluc reporter destabilization hit call (MAP2K2; 10 µM): inactive: 0
kinase-Nluc reporter destabilization hit call (MAP4K2; 10 µM): inactive: 0

COc1ccc(-c2c[nH]c3nccc(-c4ccsc4)c23)c(OC)c1
kinase-Nluc reporter destabilization hit call (ERN1; 10 µM): inactive: 0
kinase-Nluc reporter destabilization hit call (FGFR1; 10 µM): inactive: 0
kinase-Nluc reporter destabilization hit call (FGFR2; 10 µM): inactive: 0
kinase-Nluc reporter destabilization hit call (FGFR3; 10 µM): inactive: 0
kinase-Nluc reporter destabilization hit call (FGR; 10 µM): inactive: 0
kinase-Nluc reporter destabilization hit call (FLT3; 10 µM): inactive: 0
kinase-Nluc reporter destabilization hit call (FYN; 10 µM): inactive: 0
kinase-Nluc reporter destabilization hit call (GSK3A; 10 µM): inactive: 0
kinase-Nluc reporter destabilization hit call (HER2; 10 µM): inactive: 0
kinase-Nluc reporter destabilization hit call (INSRR; 10 µM): inactive: 0
kinase-Nluc reporter destabilization hit call (IRAK3; 10 µM): inactive: 0
kinase-Nluc reporter destabilization hit call (JAK1; 10 µM): inactive: 0
kinase-Nluc reporter destabilization hit call (LCK; 10 µM): inactive: 0
kinase-Nluc reporter destabilization hit call (LIMK1; 10 µM): inactive: 0
kinase-Nluc reporter destabilization hit call (LIMK2; 10 µM): inactive: 0
kinase-Nluc reporter destabilization hit call (LMTK2; 10 µM): inactive: 0
kinase-Nluc reporter destabilization hit call (MAP2K1; 10 µM): inactive: 0
kinase-Nluc reporter destabilization hit call (MAP2K2; 10 µM): inactive: 0
kinase-Nluc reporter destabilization hit call (MAP4K2; 10 µM): inactive: 0

COc1ccc(-c2cc(C(=O)NN=C(C)c3ccc(OC)c(OC)c3)[nH]n2)cc1
kinase-Nluc reporter destabilization hit call (ERN1; 10 µM): inactive: 0
kinase-Nluc reporter destabilization hit call (FGFR1; 10 µM): inactive: 0
kinase-Nluc reporter destabilization hit call (FGFR2; 10 µM): inactive: 0
kinase-Nluc reporter destabilization hit call (FGFR3; 10 µM): inactive: 0
kinase-Nluc reporter destabilization hit call (FGR; 10 µM): inactive: 0
kinase-Nluc reporter destabilization hit call (FLT3; 10 µM): inactive: 0
kinase-Nluc reporter destabilization hit call (FYN; 10 µM): inactive: 0
kinase-Nluc reporter destabilization hit call (GSK3A; 10 µM): inactive: 0
kinase-Nluc reporter destabilization hit call (HER2; 10 µM): active: 1
kinase-Nluc reporter destabilization hit call (INSRR; 10 µM): inactive: 0
kinase-Nluc reporter destabilization hit call (IRAK3; 10 µM): inactive: 0
kinase-Nluc reporter destabilization hit call (JAK1; 10 µM): inactive: 0
kinase-Nluc reporter destabilization hit call (LCK; 10 µM): inactive: 0
kinase-Nluc reporter destabilization hit call (LIMK1; 10 µM): inactive: 0
kinase-Nluc reporter destabilization hit call (LIMK2; 10 µM): inactive: 0
kinase-Nluc reporter destabilization hit call (LMTK2; 10 µM): inactive: 0
kinase-Nluc reporter destabilization hit call (LYN; 10 µM): inactive: 0
kinase-Nluc reporter destabilization hit call (MAP2K1; 10 µM): inactive: 0
kinase-Nluc reporter destabilization hit call (MAP2K2; 10 µM): inactive: 0
kinase-Nluc reporter destabilization hit call (MAP4K2; 10 µM): inactive: 0

COc1ccc(CNC(=O)Nc2ncc([N+](=O)[O-])s2)cc1
kinase-Nluc reporter destabilization hit call (ERN1; 2.5 µM): inactive: 0
kinase-Nluc reporter destabilization hit call (FGFR1; 2.5 µM): inactive: 0
kinase-Nluc reporter destabilization hit call (FGFR2; 2.5 µM): inactive: 0
kinase-Nluc reporter destabilization hit call (FGFR3; 2.5 µM): inactive: 0
kinase-Nluc reporter destabilization hit call (FGR; 2.5 µM): inactive: 0
kinase-Nluc reporter destabilization hit call (FLT3; 2.5 µM): inactive: 0
kinase-Nluc reporter destabilization hit call (FYN; 2.5 µM): inactive: 0
kinase-Nluc reporter destabilization hit call (GSK3A; 2.5 µM): inactive: 0
kinase-Nluc reporter destabilization hit call (HER2; 2.5 µM): inactive: 0
kinase-Nluc reporter destabilization hit call (INSRR; 2.5 µM): inactive: 0
kinase-Nluc reporter destabilization hit call (IRAK3; 2.5 µM): inactive: 0
kinase-Nluc reporter destabilization hit call (JAK1; 2.5 µM): inactive: 0
kinase-Nluc reporter destabilization hit call (LCK; 2.5 µM): inactive: 0
kinase-Nluc reporter destabilization hit call (LIMK1; 2.5 µM): inactive: 0
kinase-Nluc reporter destabilization hit call (LIMK2; 2.5 µM): inactive: 0
kinase-Nluc reporter destabilization hit call (LMTK2; 2.5 µM): inactive: 0
kinase-Nluc reporter destabilization hit call (LYN; 2.5 µM): inactive: 0
kinase-Nluc reporter destabilization hit call (MAP2K1; 2.5 µM): inactive: 0
kinase-Nluc reporter destabilization hit call (MAP2K2; 2.5 µM): inactive: 0
kinase-Nluc reporter destabilization hit call (MAP4K2; 2.5 µM): inactive: 0

COc1cc(N2CCN(C)CC2)ccc1Nc1nccc(-c2cn(C)c3cnccc23)n1
kinase-Nluc reporter destabilization hit call (ERN1; 10 µM): inactive: 0
kinase-Nluc reporter destabilization hit call (FGFR1; 10 µM): inactive: 0
kinase-Nluc reporter destabilization hit call (FGFR2; 10 µM): inactive: 0
kinase-Nluc reporter destabilization hit call (FGFR3; 10 µM): inactive: 0
kinase-Nluc reporter destabilization hit call (FGR; 10 µM): inactive: 0
kinase-Nluc reporter destabilization hit call (FLT3; 10 µM): inactive: 0
kinase-Nluc reporter destabilization hit call (FYN; 10 µM): inactive: 0
kinase-Nluc reporter destabilization hit call (GSK3A; 10 µM): inactive: 0
kinase-Nluc reporter destabilization hit call (HER2; 10 µM): inactive: 0
kinase-Nluc reporter destabilization hit call (INSRR; 10 µM): inactive: 0
kinase-Nluc reporter destabilization hit call (IRAK3; 10 µM): inactive: 0
kinase-Nluc reporter destabilization hit call (JAK1; 10 µM): inactive: 0
kinase-Nluc reporter destabilization hit call (LCK; 10 µM): inactive: 0
kinase-Nluc reporter destabilization hit call (LIMK1; 10 µM): inactive: 0
kinase-Nluc reporter destabilization hit call (LIMK2; 10 µM): inactive: 0
kinase-Nluc reporter destabilization hit call (LMTK2; 10 µM): inactive: 0
kinase-Nluc reporter destabilization hit call (LYN; 10 µM): inactive: 0
kinase-Nluc reporter destabilization hit call (MAP2K1; 10 µM): inactive: 0
kinase-Nluc reporter destabilization hit call (MAP2K2; 10 µM): inactive: 0
kinase-Nluc reporter destabilization hit call (MAP4K2; 10 µM): inactive: 0
